Values quoted from earlier work in patent US20060217425A1, “Methods of treating cancer using PPAR-gamma antagonists” (priority 2005, published 2006).
For at least one compound, name, drawing or mass did not settle the structure.

System: liposarcoma
Conditions: one study, background; cited from earlier work

Cc1c(C)c2c(c(C)c1O)CCC(C)(COc1ccc(CC3SC(=O)NC3=O)cc1)O2 (stereo not shown) [troglitazone]
effect on cancerous tissue in liposarcoma: convert cancerous tissue to normal tissue
